Laboratory results reported in article PMC4049815.

Target: N-terminally truncated p53 (p53 ΔN) (mouse)
Assay: co-IP; HEK293A cells co-transfected with untagged necdin (FL or ΔH4/5) and Myc-tagged PIAS1 forms or p53; lysates precipitated and blotted with antibodies to Myc and necdin (Fig. 7B: IP anti-necdin, blot anti-Myc)

binding: no binding
B1: necdin (full-length, untagged) (protein, UniProt P25233 1-325)
chain: MSEQSKDLSDPNFAAEVPDCEMQDSDAVPVGIPPPASLAANLAGPPCAPEGPMAAQQASPPPEERIEDVDPKILQQAAEEGRAHQPQSPARPIPAPPAPAQLVQKAHELMWYVLVKDQKRMVLWFPDMVKEVMGSYKKWCRSILRRTSVILARVFGLHLRLTNLHTMEFALVKALSPEELDRVALNNRMPMTGLLLMILSLIYVKGRGAREGAVWNVLRILGLRPWKKHSTFGDVRKIITEEFVQQNYLKYQRVPHIEPPEYEFFWGSRANREITKMQIMEFLARVFKKDPQAWPSRYREALEQARALREANLAAQAPRSSVSED

These are yes or no findings as the source states them, for the method shown. In cells and extracts the contact can be indirect. Sequences can lack the tags named with a protein.
